The other results are listed elsewhere or left out.

The chains behind the UniProt entries cited, without tags or fusion partners.
UniProt Q0JBA9, entry or part of it: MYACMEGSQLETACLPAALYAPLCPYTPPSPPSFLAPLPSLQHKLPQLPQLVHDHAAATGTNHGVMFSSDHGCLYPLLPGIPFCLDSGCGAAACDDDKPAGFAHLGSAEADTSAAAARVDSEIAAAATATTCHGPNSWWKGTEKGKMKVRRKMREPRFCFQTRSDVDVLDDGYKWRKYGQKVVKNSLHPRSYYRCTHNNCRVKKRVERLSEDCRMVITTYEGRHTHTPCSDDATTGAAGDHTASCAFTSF

The target in the assay is OsWRKY34 (Oryza sativa, UniProt Q0JBA9 1-250). In words: protein-binding microarray (RPBM); PBS, 2% BSA, 51.3 ng/ul salmon testes DNA, 50 uM zinc acetate, 200 nM TF, 25 C, 1 h; high values mean tight binding. The following applies: protein: recombinant; tags: N-terminal polyhistidine and DsRed monomer fusion (pET32a); label: CyDye5-dUTP incorporated in the synthesized complementary strand; 3' TTTTT single-stranded linker to array surface; dsDNA, one strand shown. A digest of the protocol:
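In PBS with 2% BSA, salmon testes DNA and 50 µM zinc acetate, 200 nM protein was incubated on a custom Agilent array at 25 °C for 1 h and then washed off. The array had been made double-stranded by primer extension with Cy5-dUTP and blocked with 2% BSA. The proteins were transcription factors fused N-terminally to polyhistidine and DsRed, expressed in E. coli BL21-CodonPlus and purified on Ni–NTA. The binding signal is per-feature fluorescence intensity (arbitrary units) from an Axon 4000B scanner.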
As for “CATATTTTTCTTTTTCATACCATATTGAGTTTTGCAAGGGCGGAGTCACCTAGTGCAG”, the binding signal was 8120 fluorescence intensity (a.u.).
For “TGTTCATGTCTAACGTTTGACCGTTCGTCTTATTTGAAAACGGAGTCACCTAGTGCAG”, the binding signal is 9480 fluorescence intensity (a.u.).
With “CGCTTCTTTTATTTGGGCCGGGCAGTTTCTGGGCTAGACCCGGAGTCACCTAGTGCAG”, the binding signal is 8670 fluorescence intensity (a.u.).
In the case of “CCTGCCACATCAGCATAAACCGCTTACAAAACCACCCGAGCGGAGTCACCTAGTGCAG” it was 9050 fluorescence intensity (a.u.).
The result for “GACCGCCGCGCTCGTCACCCACACCGGCCGCCGAGCTCGCCGGAGTCACCTAGTGCAG” reads 8590 fluorescence intensity (a.u.); that for “GAAAATATCTGAAAGATACCGTTTGTCGTACTCCTTTTCTCGGAGTCACCTAGTGCAG”, 9000 fluorescence intensity (a.u.).
Regarding “ACGACATCTACATGAATGTTTTAGCTTCTTTCCTTAGTTTCGGAGTCACCTAGTGCAG”, the binding signal is 12900 fluorescence intensity (a.u.).
The result for “GGCTGAGGGAGGTAATTTAGTTAGCAACAAGAGATAAGGGCGGAGTCACCTAGTGCAG” reads 9380 fluorescence intensity (a.u.); that for “CCATGTGATTTGTTCCTTGGCTCTTCCACTCTCTAGCTCCCGGAGTCACCTAGTGCAG”, 10200 fluorescence intensity (a.u.).
Consider “GTCGGTTATATGTCTGTATCATGATGTAATTTTTTTACTGCGGAGTCACCTAGTGCAG”, for which the binding signal was 9180 fluorescence intensity (a.u.).
The result for “GATAATTCGTCGTTCGTTTTGTGCATCCATCCAGAATTCGCGGAGTCACCTAGTGCAG” reads 8990 fluorescence intensity (a.u.).
In the case of “CCCAAGTGGATAGCGAATTCTTTTTCTCTCGTTCACATTCCGGAGTCACCTAGTGCAG” it was 11800 fluorescence intensity (a.u.); in that of “GCGCCACACCCACCGGCAGCTCCTCCTCGCACCGAGGTTGCGGAGTCACCTAGTGCAG”, 8210 fluorescence intensity (a.u.).
The result for “CATTTATTAATAGTGCGAAATTGAACCGAGTCTTTTTTTCCGGAGTCACCTAGTGCAG” reads 8160 fluorescence intensity (a.u.); that for “GAGGAGGATTTGTCCTGGTTTGGTGGTGGTGGGGAGCGGCCGGAGTCACCTAGTGCAG”, 15200 fluorescence intensity (a.u.).
As to “CCCCGTCTTCTCATCACCAGCTCAGCTGTGGCCGGCCGCGCGGAGTCACCTAGTGCAG”, the binding signal is 8780 fluorescence intensity (a.u.).
In the case of “AGACTCTTTTGTTTCTGCCGTTCCAAATATTCCAACGTTTCGGAGTCACCTAGTGCAG” it was 8480 fluorescence intensity (a.u.).
In the case of “AATTAATTATAGGTCCTTTTTTGGCTCTGTTTACACGTATCGGAGTCACCTAGTGCAG” it was 8460 fluorescence intensity (a.u.); in that of “GTTGCCCTCTCCTTCCCGGCGCGGCCACTCCGTCCGCCGCCGGAGTCACCTAGTGCAG”, 10800 fluorescence intensity (a.u.); in that of “AGACAGGAGTACATGACCAACCAATATTCTCAACCTTTTACGGAGTCACCTAGTGCAG”, 8060 fluorescence intensity (a.u.).
In the case of “TCCAAGGACCTAATCGCAAAAAACACCGTAGCTGAAATAACGGAGTCACCTAGTGCAG” it was 8030 fluorescence intensity (a.u.); in that of “CTTTCTTTATTTCAAAAGTATGATACCGTTGACTTTTCACCGGAGTCACCTAGTGCAG”, 24900 fluorescence intensity (a.u.); in that of “AAACCCACCCACCCAGCGCTTCTTCTTTCCTTTCTTTATTCGGAGTCACCTAGTGCAG”, 12900 fluorescence intensity (a.u.).
With “ACGCCCACACCCTCCTACTTATTGGCATCATTTTTCCTCTCGGAGTCACCTAGTGCAG”, the binding signal was 8750 fluorescence intensity (a.u.).
In the case of “AGTTGTGCTCTTTTCTTAGCTTATTCATTCTTGTTGTATTCGGAGTCACCTAGTGCAG” it was 9470 fluorescence intensity (a.u.); in that of “AACGACGCCTAATCACCGTGTTTTGTTTCGTCTCGTAATCCGGAGTCACCTAGTGCAG”, 8460 fluorescence intensity (a.u.).
In the case of “AATCCCTCGGGCGTCCCTTTGTACCTTTCTTTTTTCAAAACGGAGTCACCTAGTGCAG” it was 11300 fluorescence intensity (a.u.); in that of “GACATGAATCACGTTGACTGCACAATTTATTTCTTTGTTCCGGAGTCACCTAGTGCAG”, 10900 fluorescence intensity (a.u.); in that of “GTGCAGCAATCATCTCGTCCACCTCACCTTACCCGAAACCCGGAGTCACCTAGTGCAG”, 8340 fluorescence intensity (a.u.).
In the case of “CGTAATACTCCTTCCGTTTCATATTATATAAGTCGTTTGACGGAGTCACCTAGTGCAG” it was 11500 fluorescence intensity (a.u.).
On to “CTAGCTATATTACACGTTATTTTTTTTATTGTTATCATACCGGAGTCACCTAGTGCAG”, for which the binding signal is 9630 fluorescence intensity (a.u.).
The result for “AGCGTTACGCTTCACGGTTCACATTTTTTATATACTTCCTCGGAGTCACCTAGTGCAG” reads 9050 fluorescence intensity (a.u.); that for “GGCCGTTTGATGCAGATCTCGCTTGGCAAAGCAAATCTCCCGGAGTCACCTAGTGCAG”, 9720 fluorescence intensity (a.u.).
“TATCCACACCTCCACTTCATGTACATATATGGAATACCTACGGAGTCACCTAGTGCAG”: the binding signal is 9650 fluorescence intensity (a.u.).
The result for “GTCTTCTGTTCTCAATTATCAATTTTGCTATAGCTCACTCCGGAGTCACCTAGTGCAG” reads 9180 fluorescence intensity (a.u.); that for “TTCTGGTCAGAATCATGTGTTTTTCCTATCCCTCCACTTTCGGAGTCACCTAGTGCAG”, 8710 fluorescence intensity (a.u.).
In the case of “CTCTCTCTCTTCTTCGCTGGCTCGCGCAAATCGAGGCCTTCGGAGTCACCTAGTGCAG” it was 8680 fluorescence intensity (a.u.).
For the sequence “GGTTCTCTGTTCTTGGCTGTTTTCTTCCAACCGTCTCATCCGGAGTCACCTAGTGCAG”, the binding signal was 16200 fluorescence intensity (a.u.).
The result for “GTATCCATTTCGTTTCCAATATCATACTACCTGTCTTCTACGGAGTCACCTAGTGCAG” reads 10700 fluorescence intensity (a.u.).
In the case of “GCAGCAGTATAAGCAGTAAGCACTCCACTCACTCACCAAACGGAGTCACCTAGTGCAG” it was 9250 fluorescence intensity (a.u.); in that of “GTTGCCACACCTCATGTTAGGCAAGTTTGACCAAATTAGTCGGAGTCACCTAGTGCAG”, 8680 fluorescence intensity (a.u.).
The result for “GTCACACTCCACTCCGTCCACCACCACCACCACCGCATCGCGGAGTCACCTAGTGCAG” reads 9590 fluorescence intensity (a.u.).

The values are drawn from paper PMC7819943, “Rice protein-binding microarrays: a tool to detect cis-acting elements near promoter regions in rice”.
